According to article PMC7849821, “The deubiquitylase USP9X controls ribosomal stalling” (The Journal of Cell Biology, 2021):
Read-outs that look alike come from different tables or passages of the source. These are yes or no findings as the source states them, for the method shown. In cells and extracts the contact can be indirect. Some binding calls cover weakened binding; strength is not graded here. Where a sequence is shown, tags or fusion partners need not be part of it. Values belong to the molecule of their own block, whether it stands above or below them.

By UniProt entry, the sequences of proteins in these tests, tags left out.
UniProt Q93008: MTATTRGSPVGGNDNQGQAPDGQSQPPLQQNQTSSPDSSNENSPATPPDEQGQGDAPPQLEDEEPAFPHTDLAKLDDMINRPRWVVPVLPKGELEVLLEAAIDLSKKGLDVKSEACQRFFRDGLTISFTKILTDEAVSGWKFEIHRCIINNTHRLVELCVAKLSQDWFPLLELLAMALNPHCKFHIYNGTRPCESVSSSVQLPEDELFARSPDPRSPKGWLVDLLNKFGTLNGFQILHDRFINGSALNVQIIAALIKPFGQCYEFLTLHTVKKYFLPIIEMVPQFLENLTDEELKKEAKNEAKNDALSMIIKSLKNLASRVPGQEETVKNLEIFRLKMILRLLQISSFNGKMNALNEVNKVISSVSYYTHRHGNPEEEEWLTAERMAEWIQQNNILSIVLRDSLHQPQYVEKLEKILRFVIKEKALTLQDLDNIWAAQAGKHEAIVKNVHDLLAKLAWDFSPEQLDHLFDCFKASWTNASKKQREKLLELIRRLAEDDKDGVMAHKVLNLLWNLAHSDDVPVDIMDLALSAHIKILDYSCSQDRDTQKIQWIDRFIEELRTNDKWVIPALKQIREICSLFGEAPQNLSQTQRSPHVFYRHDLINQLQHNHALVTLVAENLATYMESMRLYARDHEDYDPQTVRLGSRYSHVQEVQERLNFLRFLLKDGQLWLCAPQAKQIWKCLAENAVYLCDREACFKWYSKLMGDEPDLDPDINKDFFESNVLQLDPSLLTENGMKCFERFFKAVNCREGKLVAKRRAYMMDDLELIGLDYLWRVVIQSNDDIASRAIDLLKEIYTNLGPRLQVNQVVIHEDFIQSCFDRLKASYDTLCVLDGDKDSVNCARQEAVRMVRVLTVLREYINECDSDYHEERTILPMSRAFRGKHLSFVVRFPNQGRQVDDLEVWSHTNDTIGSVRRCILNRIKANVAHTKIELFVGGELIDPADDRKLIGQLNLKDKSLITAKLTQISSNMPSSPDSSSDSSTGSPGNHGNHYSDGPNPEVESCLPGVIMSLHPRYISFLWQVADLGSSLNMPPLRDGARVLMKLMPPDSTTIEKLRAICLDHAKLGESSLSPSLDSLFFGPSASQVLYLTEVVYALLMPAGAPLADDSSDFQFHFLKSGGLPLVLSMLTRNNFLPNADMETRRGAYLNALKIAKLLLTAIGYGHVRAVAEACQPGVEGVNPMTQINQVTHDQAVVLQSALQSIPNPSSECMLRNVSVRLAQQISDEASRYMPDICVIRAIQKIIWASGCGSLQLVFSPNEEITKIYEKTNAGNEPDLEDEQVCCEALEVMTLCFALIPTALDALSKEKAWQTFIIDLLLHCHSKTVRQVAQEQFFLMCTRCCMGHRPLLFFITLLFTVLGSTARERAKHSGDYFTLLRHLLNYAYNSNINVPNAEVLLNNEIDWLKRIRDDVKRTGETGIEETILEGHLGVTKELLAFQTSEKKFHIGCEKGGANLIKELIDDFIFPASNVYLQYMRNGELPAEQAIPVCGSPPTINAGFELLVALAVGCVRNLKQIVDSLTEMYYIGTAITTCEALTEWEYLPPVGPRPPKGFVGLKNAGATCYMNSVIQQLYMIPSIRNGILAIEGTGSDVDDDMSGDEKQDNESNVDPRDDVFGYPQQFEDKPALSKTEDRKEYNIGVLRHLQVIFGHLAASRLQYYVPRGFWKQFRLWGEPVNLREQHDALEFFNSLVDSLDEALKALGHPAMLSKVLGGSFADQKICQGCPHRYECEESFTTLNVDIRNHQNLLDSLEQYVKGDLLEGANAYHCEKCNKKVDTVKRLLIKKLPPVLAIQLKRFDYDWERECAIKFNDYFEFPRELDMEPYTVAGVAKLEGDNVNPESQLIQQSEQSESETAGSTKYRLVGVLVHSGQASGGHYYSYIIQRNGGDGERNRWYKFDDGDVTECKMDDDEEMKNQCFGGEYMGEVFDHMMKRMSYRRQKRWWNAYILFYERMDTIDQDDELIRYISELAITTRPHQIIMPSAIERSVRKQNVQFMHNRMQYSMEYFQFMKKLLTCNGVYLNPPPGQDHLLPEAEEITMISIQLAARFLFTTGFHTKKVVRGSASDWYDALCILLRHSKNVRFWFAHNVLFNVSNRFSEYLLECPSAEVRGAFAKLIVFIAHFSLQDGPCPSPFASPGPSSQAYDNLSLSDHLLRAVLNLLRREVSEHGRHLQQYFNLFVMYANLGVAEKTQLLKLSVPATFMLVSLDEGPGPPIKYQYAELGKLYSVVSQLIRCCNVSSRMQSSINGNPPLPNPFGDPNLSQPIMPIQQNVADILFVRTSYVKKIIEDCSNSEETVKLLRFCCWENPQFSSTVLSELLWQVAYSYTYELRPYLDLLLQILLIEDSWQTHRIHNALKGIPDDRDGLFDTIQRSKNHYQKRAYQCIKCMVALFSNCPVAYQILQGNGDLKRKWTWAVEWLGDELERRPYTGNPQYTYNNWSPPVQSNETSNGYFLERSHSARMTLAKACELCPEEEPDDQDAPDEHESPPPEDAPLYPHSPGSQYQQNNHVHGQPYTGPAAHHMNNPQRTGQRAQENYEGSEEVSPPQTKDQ

Tests used:
Assay in all cases: co-IP; lysates (TNTE buffer: 10 mM Tris-Cl pH 7.5, 150 mM NaCl, 0.3% Triton X-100, 5 mM EDTA) of transfected HEK293T cells, 750 ug protein on FLAG affinity gel 2 h at 4°C, washed with TBS, immunoblot
FLAG-MKRN1 = target: T1, FLAG-MKRN1 (UniProt Q9UHC7)
T1 sequence: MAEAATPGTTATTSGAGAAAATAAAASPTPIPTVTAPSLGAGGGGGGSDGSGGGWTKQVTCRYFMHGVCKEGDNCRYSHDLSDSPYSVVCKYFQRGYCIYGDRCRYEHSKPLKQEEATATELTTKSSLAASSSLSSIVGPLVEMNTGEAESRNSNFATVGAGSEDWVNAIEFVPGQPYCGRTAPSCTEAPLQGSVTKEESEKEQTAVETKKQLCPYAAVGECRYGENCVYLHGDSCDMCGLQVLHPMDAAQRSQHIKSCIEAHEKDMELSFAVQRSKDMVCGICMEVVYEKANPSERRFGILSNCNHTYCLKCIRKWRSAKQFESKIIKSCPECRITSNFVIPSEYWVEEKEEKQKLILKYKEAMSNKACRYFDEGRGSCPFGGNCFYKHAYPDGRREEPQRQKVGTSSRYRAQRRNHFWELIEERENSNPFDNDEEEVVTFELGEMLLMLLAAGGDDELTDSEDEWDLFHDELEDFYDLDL

MKRN2-FLAG [1] = target: T2, MKRN2-FLAG (UniProt Q9H000)
T2 sequence: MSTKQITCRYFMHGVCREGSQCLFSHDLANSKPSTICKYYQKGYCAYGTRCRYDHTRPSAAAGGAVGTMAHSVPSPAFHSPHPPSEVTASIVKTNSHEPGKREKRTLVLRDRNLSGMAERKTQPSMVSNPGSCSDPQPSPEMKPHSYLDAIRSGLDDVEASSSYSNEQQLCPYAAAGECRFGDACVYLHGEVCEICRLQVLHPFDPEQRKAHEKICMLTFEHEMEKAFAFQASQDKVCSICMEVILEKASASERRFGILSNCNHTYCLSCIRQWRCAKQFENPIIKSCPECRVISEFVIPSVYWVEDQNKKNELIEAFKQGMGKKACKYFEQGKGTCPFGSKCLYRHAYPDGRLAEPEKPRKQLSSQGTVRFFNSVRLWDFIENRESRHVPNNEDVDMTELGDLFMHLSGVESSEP

ZNF598-FLAG (human) = target: T3, ZNF598-FLAG (human) (UniProt Q86UK7)
T3 sequence: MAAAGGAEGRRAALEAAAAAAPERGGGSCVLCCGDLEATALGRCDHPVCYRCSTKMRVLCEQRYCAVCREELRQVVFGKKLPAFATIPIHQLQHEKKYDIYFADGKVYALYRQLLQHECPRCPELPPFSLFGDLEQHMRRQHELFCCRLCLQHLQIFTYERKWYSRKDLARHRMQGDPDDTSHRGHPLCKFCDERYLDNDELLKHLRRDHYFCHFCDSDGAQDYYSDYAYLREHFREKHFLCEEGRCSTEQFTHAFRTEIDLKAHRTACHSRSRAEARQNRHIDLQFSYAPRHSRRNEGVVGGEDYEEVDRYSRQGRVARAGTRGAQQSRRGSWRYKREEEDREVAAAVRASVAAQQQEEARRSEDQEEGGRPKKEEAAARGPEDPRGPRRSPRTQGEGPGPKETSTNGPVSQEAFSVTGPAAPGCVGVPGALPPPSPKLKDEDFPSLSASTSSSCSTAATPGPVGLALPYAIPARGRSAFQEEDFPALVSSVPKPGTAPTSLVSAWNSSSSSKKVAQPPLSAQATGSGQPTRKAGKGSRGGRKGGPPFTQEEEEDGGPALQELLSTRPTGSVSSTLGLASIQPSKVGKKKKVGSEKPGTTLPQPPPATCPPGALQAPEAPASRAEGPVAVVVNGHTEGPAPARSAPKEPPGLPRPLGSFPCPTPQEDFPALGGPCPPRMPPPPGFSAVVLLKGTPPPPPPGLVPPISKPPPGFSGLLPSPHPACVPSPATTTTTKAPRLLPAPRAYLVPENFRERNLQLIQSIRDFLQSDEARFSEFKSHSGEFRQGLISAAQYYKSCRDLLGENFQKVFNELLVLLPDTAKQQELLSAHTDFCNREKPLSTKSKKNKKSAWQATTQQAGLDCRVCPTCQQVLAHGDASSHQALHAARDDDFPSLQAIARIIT

FLAG-MKRN1, Q9UHC7 = target: T4, FLAG-MKRN1, Q9UHC7; details: remark: other sources report otherwise
T4 chain: T1 sequence

MKRN2-FLAG [2] = target: T2, MKRN2-FLAG; remark: listed apart in the source

- binding (FLAG-MKRN1): binds
- binding (MKRN2-FLAG [1]): binds
- binding (ZNF598-FLAG (human)): binds
Molecule: USP9X (from UniProt Q93008 1-2554) (enzyme)

- binding (FLAG-MKRN1, Q9UHC7): binds
B1: ZNF598, Q86UK7 1-904 (enzyme)
chain: T3 sequence

- binding (MKRN2-FLAG [2]): binds
B2: ZNF598 (enzyme, UniProt Q86UK7 1-904)
chain: T3 sequence
